PubChem BioAssay AID743454 | Peter MacCallum Cancer Centre, 2014
Shown is a random part of about 18,000 reagents tested. 450 of them (2.5%) count as active. 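Single biological run; no consistent viability z cut-off exists, so the class columns, not z-scores, define the calls.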 Reagent sequences are not shown.

- Assay: 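Genes whose loss kills vorinostat-resistant colon cancer cells under vorinostat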 (primary screen)
- System: human HCT116-VR colon cancer cells, selected for vorinostat resistance
- Reagent: siRNA pool against human genes, 40 nM siRNA pool
- Timing: vorinostat for 24 h, read-out about 72 h after transfection
- Challenge: vorinostat at 2.5 µM final
- Measurement: 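Cell viability by CellTiter-Fluor and caspase 3/7 activity by luminescence, each scaled to mock wells per plate, duplicates averaged, then robust z-scored over all plates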
- Direction: viability robust z-score: higher = more viable cells than screen typical; caspase robust z-score: higher = more caspase 3/7 activity than screen typical
- Rule for the call: 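a knock-down is a hit when classed RV1 or RV2 for lowered viability, or CA1 or CA2 for caspase activation; those lethal without drug were dropped; hits were retested singly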

The opening 6 records as a preview:
gene	PubChem SID	viability hit class	caspase hit class	viability robust z-score	caspase robust z-score	outcome
SYT15	SID134317735	no change	no change	-1.01	1.02	inactive
WNK2	SID56479037	no change	no change	0.82	-0.42	inactive
NYX	SID134318341	RV2 (reduced viability)	no change	-2.96	1.58	active
PCTP	SID135622611	no change	no change	0.78	-0.48	inactive
AP5B1	SID152148825	no change	no change	0.5	0.38	inactive
MRPL20	SID134321494	no change	no change	0.7	0.03	inactive

The list itself, repeating the preview:
gene	PubChem SID	viability hit class	caspase hit class	viability robust z-score	caspase robust z-score	outcome
SYT15	SID134317735	no change	no change	-1.01	1.02	inactive
WNK2	SID56479037	no change	no change	0.82	-0.42	inactive
NYX	SID134318341	RV2 (reduced viability)	no change	-2.96	1.58	active
PCTP	SID135622611	no change	no change	0.78	-0.48	inactive
AP5B1	SID152148825	no change	no change	0.5	0.38	inactive
MRPL20	SID134321494	no change	no change	0.7	0.03	inactive
FZD4	SID135621005	no change	no change	1.07	-0.18	inactive
HOXC9	SID134316619	no change	no change	0.28	2.25	inactive
DLGAP1-AS1	SID135625524	no change	no change	1.4	0.3	inactive
QPCT	SID135622327	no change	no change	-0.13	0.6	inactive
CFAP91	SID152156061	no change	no change	-0.58	1.17	inactive
ARFGEF3	SID152153615	no change	no change	-0.49	-0.53	inactive
FLI1	SID134310138	no change	no change	0.73	-0.08	inactive
SYNCRIP	SID134320219	no change	no change	-0.93	0.72	inactive
OR5V1	SID152148916	no change	no change	-0.38	-0.84	inactive
SAP30L	SID135622731	no change	no change	-2.24	1.23	inactive
CCDC178	SID152149926	no change	no change	-0.02	-0.4	inactive
EPHX2	SID152152560	no change	no change	1.05	2.64	inactive
ACP7	SID135624962	no change	no change	1.17	-0.36	inactive
TRPM5	SID134311840	no change	no change	-0.38	-0.32	inactive
CYP2J2	SID135621525	no change	no change	0.45	0.18	inactive
ECE1	SID134311284	no change	no change	0.75	1.25	inactive
TBC1D22B	SID134324717	no change	no change	1.37	-0.32	inactive
ACOT7	SID152154487	no change	no change	-0.99	0.17	inactive
DNAJC25-GNG10	SID135625403	no change	no change	-0.49	0.2	inactive
NDUFAF5	SID135622718	no change	no change	0.2	-0.85	inactive
ANKRD45	SID134326832	no change	no change	0.84	0.26	inactive
APEX2	SID134317940	no change	no change	1.58	-0.64	inactive
RNF13	SID152150040	no change	no change	-0.37	1.02	inactive
ENPP5	SID134314516	no change	no change	-1.86	3.36	inactive
RNF10	SID152150583	no change	no change	0.3	-0.52	inactive
GUCY2F	SID152150427	no change	no change	1.46	-0.66	inactive
JAKMIP2	SID134324778	no change	no change	0.71	0.07	inactive
NMUR2	SID134311110	no change	no change	-0.46	0.86	inactive
DOC2A	SID152153800	no change	no change	-0.1	1.34	inactive
TRPV2	SID134310307	no change	no change	-1.07	2.35	inactive
CT45A2	SID135625699	no change	no change	-0.16	0.76	inactive
GBP4	SID152148313	no change	no change	-0.52	1.44	inactive
MAGEA8	SID134321305	no change	no change	0.1	0.19	inactive
SERPINA9	SID135623422	no change	no change	1.41	-0.71	inactive
CABCOCO1	SID134322313	no change	no change	0.98	-0.21	inactive
ZNF561	SID134319905	no change	no change	-0.24	0.7	inactive
LIMD1	SID152148250	no change	no change	-0.51	2.5	inactive
CCDC110	SID152152194	no change	no change	1.72	-0.34	inactive
PDGFB	SID134316068	no change	no change	-0.88	3.46	inactive
STAT5B	SID135621957	no change	no change	-0.2	-0.2	inactive
KATNB1	SID152153311	no change	no change	-0.6	0.34	inactive
PNO1	SID134321928	no change	no change	-2.05	-1.24	inactive
ARL6IP6	SID152156057	no change	no change	-0.12	2.75	inactive
NHS	SID134329496	no change	no change	0.16	-1.04	inactive
LYRM4	SID135622986	no change	no change	-0.48	0.3	inactive
PLXNC1	SID134312722	no change	no change	0.78	-1.21	inactive
MED30	SID134319292	no change	no change	0.52	-0.36	inactive
CAPN5	SID152150345	no change	no change	0.64	0.8	inactive
LSMEM1	SID134322700	no change	no change	-0.46	-1.05	inactive
NHLRC1	SID134326885	no change	no change	1.01	-0.38	inactive
LY75	SID152150975	no change	no change	0.74	-0.61	inactive
